In series [1] the test system is HPA axis hormones and steroids. Description: Single ascending dose study, HPA axis hormones and steroids. Conditions: human. It is filed as in vivo.
In series [2] the test system is HPA axis hormones and steroids. Put plainly: Multiple ascending dose study, HPA axis hormones and steroids. The format is in vivo. Conditions: human, in words. As for the experimental part: A double‐blind, randomized, placebo‐controlled multiple ascending dose study was carried out at Linear Clinical Research Ltd, Nedlands, Australia. Each cohort consisted of eight healthy male subjects. Each subject received UE2343 or placebo twice daily (b.i.d ) (12 hourly) in the fed state for 9 days (Day 1 to Day 9) and once on the morning of Day 10 (19 doses in total). Dose cohorts were 10, 20 and 35 mg. Dose escalation and selection was dependent upon satisfactory review of the blinded safety (up to Day 17 ± 2) and plasma pharmacokinetics (up to Day 12) data from the preceding cohort. Safety, pharmacokinetic and pharmacodynamic assessments were made at pre‐determined time‐points during each part of the study.
Laboratory evaluation of clinical safety parameters was carried out using standard validated methods. Measurement of plasma pharmacodynamic markers [adrenocorticotropic hormone (ACTH), cortisol, 4‐androstenedione, testosterone and dehydroepiandrosterone sulphate (DHEA‐s)] was carried out using commercially available kits. Each method was fully validated prior to analysis. Urinary steroid metabolites were measured according to established methods (Boonen et al., 2013). UE2343 levels in plasma, urine and CSF was determined by LC–MS/MS using fully validated methods.
The data and statistical analysis comply with the recommendations on experimental design and analysis in pharmacology (Curtis et al., 2015). Levels of probability, P < 0.05 were deemed to constitute the threshold for statistical significance. Pharmacokinetic parameters, except Tmax (time of maximum observed drug concentration), are given as mean ± coefficient of variation (CV%). Tmax is given as median ± range. For each of the pharmacodynamic parameters [ACTH, cortisol, adrenal androgens, tetrahydrocortisols (THFs)/tetrahydrocortisone (THE) ratio], the maximum % change from baseline for each subject was subjected to ANOVA. For selected data, an additional covariate factor for the baseline was also included in the ANOVA/analysis of covariance (ANCOVA) model. […]

The structures appear in SMILES notation.

With `O=C(c1csc(-c2cn[nH]c2)c1)N1C2CCC1CC(O)(c1ncccn1)C2` (stereo not drawn) [compound 4], the “time post‐dose by which ACTH values had returned to baseline” value in series [1] (single dose) was “approximately 47 h”. Also, in series [1] (single dose, across the 18–35 mg dose range, in words), the “plasma ACTH” value is “dose‐dependent increase”. Further, the “DHEA‐s compared to placebo” value in series [1] (single dose, significant at 2, 5 and 35 mg (P < 0.05), in words) was “higher”. Also, in series [1] (single doses 2–35 mg, in words), the “effect on 4‐androstenedione levels” value is given as “no effect”, the “effect on serum cortisol levels” value is on record as “no effect” and the “effect on testosterone levels” value is “no effect”. In addition, in series [2] (10 and 20 mg b.i.d (P < 0.05)), the “4‐androstenedione change from baseline compared with placebo” value is on record as “statistically significant increases”. The “changes in cortisol, testosterone, 4‐androstenedione or DHEA‐s” value in series [2] (multiple doses 10–35 mg b.i.d) is on record as “No dose‐dependent relationship”. The “DHEA‐s change from baseline” value in series [2] (multiple doses, significant vs placebo at 10 and 35 mg) is on record as “increased from baseline”.

The values are drawn from paper PMC5301048, “Selection and early clinical evaluation of the brain‐penetrant 11β‐hydroxysteroid dehydrogenase type 1 (11β‐HSD1) inhibitor UE2343 (Xanamem™)” (British Journal of Pharmacology, 2017).
